Values of other authors, collected in patent US10420731B1, “Method of synthesizing lignin-based nanocompositions” (KING SAUD UNIVERSITY, priority 2019, dated 2019).

Details: reported; cited from earlier work

## COc1cc(/C=C/C(=O)CC(=O)/C=C/c2ccc(O)c(OC)c2)ccc1O [curcumin]
  Water solubility: less than 1 μg/mL
